Assay results as given in PubChem BioAssay AID488837 (National Center for Advancing Translational Sciences (NCATS), 2010).
Screen size: about 330,000 compounds; about 20 (0.006%) were called active. This list was built around the results that the source calls inconclusive (neither active nor inactive); the mix of calls is not that of the screen. Calls follow the shape of the dose curve; as a rule, active = well fitted inhibition curve with a large enough effect; inconclusive = small, poorly fitted or top-dose-only effect, or effect the other way; inactive = flat fitted curve, though single readings scatter. Potencies beside an inconclusive call are fits to weak or partial responses and may not hold up.
% is scaled to controls: 0 for no effect and ±100 for the full control effect; potency is read from the fitted curve at half-maximal effect.

Sequences of proteins named here, by UniProt entry; tags and fusion partners are left off.
UniProt O00167, whole entry, looked up: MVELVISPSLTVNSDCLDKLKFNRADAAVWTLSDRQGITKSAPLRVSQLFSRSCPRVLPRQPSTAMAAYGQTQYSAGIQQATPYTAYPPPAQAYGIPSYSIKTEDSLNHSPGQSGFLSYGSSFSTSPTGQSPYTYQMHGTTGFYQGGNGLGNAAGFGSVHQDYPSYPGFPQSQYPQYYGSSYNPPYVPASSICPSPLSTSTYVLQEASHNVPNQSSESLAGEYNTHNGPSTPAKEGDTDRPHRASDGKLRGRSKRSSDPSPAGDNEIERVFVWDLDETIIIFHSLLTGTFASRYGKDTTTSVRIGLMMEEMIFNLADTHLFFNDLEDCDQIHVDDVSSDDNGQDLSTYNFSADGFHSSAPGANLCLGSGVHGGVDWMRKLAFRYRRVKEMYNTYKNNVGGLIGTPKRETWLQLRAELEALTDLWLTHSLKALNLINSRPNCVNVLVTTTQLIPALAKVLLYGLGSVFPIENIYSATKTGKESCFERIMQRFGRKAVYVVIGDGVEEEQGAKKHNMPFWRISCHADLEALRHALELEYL

These molecules were tested against Protein phosphatase EYA2 (Homo sapiens) (UniProt O00167) (assay: qHTS Assay for Inhibitors of the Phosphatase Activity of Eya2). Settings: recombinant Eya2, OMFP fluorescence dephosphorylation (OMFP is methylfluorescein phosphate); activity, negative = inhibition: at 76.9 µM (top of the series) unless noted.
Method in brief: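 Eya2 protein (added as 0.2 uM solution) was preincubated with compound for 10 min at ambient temperature in 50 mM HEPES pH 7.5, 50 mM NaCl, 5 uM MgCl2, 0.05% BSA, 1 mM DTT. OMFP (added at 50 uM) then reacted 10 min; fluorescence read at 485/525 nm.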
With CCOC(=O)COc1ccc(S(=O)(=O)NC2CC2)cc1 the “activity, negative = inhibition” value was inactive: 7.82%.
For Cc1ccccc1N=C1NC(=O)C(CO)(CO)S1, the “activity, negative = inhibition” value was inactive: 6.17%.
For COc1ccc(CSCC(=O)Nc2ccccc2)cc1[N+](=O)[O-], the Potency was inconclusive: 100 µM [inhibitor, single point].
For O=C(O)c1cccc(NC(=S)N/N=C/c2cccc(O)c2)c1, the “activity, negative = inhibition” value was inactive: 10.1%.
With Cc1ccccc1-n1cc[nH]c1=S the Potency was inconclusive: 224 µM [inhibitor, single point].
In the case of Cc1cccc(Nc2c([N+](=O)[O-])ccc3nonc23)c1C, the Potency is reported as inconclusive: 447 µM [inhibitor, partial curve, poor fit].
In the case of O=c1c2nncn2c2cccnc2n1CCNc1ncc(C(F)(F)F)cc1Cl, the Potency is reported as inconclusive: 112 µM [inhibitor, partial curve, poor fit].
In the case of O=C(/C=C/c1ccccc1)NC(NC(=S)Nc1cccc(O)c1)C(Cl)(Cl)Cl (centres undefined), the activity, negative = inhibition is reported as inconclusive: 79.4% [activator].
In the case of O=C(Nc1ccc([N+](=O)[O-])cc1Cl)c1cc(Cl)ccc1O, the Potency is reported as “inactive”.
In the case of Cc1cc(C)c(S(=O)(=O)N2CCN(S(=O)(=O)N3CCCCCC3)CC2)c(C)c1, the “activity, negative = inhibition” value is reported as inactive: 0.724%.
O=C(O)CN1C(=O)C(=O)N(Cc2ccc(Cl)cc2Cl)C1=O was tested, and the Potency was inconclusive: 25.1 µM [inhibitor, single point].
For CC(C)(C)OC(=O)COc1cc(OCC(=O)OC(C)(C)C)c2c(=O)cc(-c3ccccc3)oc2c1, the Potency was inconclusive: 1580 µM [inhibitor, single point].
With CCC(C)c1ccccc1N1CC(C(=O)Nc2ccc(N3CCOCC3)cc2)CC1=O (centres undefined) the Potency was inconclusive: 89.1 µM [inhibitor, single point].
O=C(Nc1ccc(O)cc1C(=O)O)c1ccc2c(c1)C(=O)N(Cc1ccco1)C2=O was tested, and the “activity, negative = inhibition” value was inactive: 7.59%.
With Cc1ccc(NCC(=O)N=Nc2c(O)[nH]c3ccc([N+](=O)[O-])cc23)cc1 the “activity, negative = inhibition” value was inactive: 11.4%.
For O=C(O)CCCN1C(=O)c2ccc(C(=O)c3cccc([N+](=O)[O-])c3)cc2C1=O, the Potency was inconclusive: 100 µM [inhibitor, single point].
COCCN(C(=O)CCC(=O)Nc1cc(C)on1)C(C(=O)NC1CCCC1)c1ccccc1C (centres undefined) was tested, and the “activity, negative = inhibition” value was inactive: 1.12%.
For Nc1c(Cl)c(Cl)nc(C(=O)N/N=C/c2ccco2)c1Cl, the Potency was inconclusive: 100 µM [inhibitor, single point].
C[C@H](CO)N1C[C@H](C)[C@@H](CN(C)CC2CCCCC2)Oc2c(NC(=O)C3CC3)cccc2C1=O was tested, and the Potency was inconclusive: 56.2 µM [inhibitor, single point].
With CC(Oc1ccccc1)C(=O)N1CCN(C(=O)C(C)Oc2ccccc2)CC1 (centres undefined) the “activity, negative = inhibition” value was inactive: 2.13%.
In the case of NS(=O)(=O)c1ccc(CNC(=O)c2cnccn2)cc1, the Potency is reported as inconclusive: 28.2 µM [inhibitor, partial curve, poor fit].
In the case of Cc1cc(C)c(C#N)c(SCCN2CCOCC2)n1, the “activity, negative = inhibition” value is reported as inactive: 10.1%.
For Cc1cc(=O)oc(C)c1C(=O)Nc1ccc(F)cc1, the Potency was inconclusive: 89.1 µM [inhibitor, single point].
For COC(=O)CSc1nc(N)c(C#N)c(-c2ccc(O)cc2)c1C#N, the Potency was inconclusive: 100 µM [inhibitor, single point].
In the case of CCCN(C(=O)COC(=O)c1[nH]c(C)c(C(=O)OC)c1C)c1c(N)n(Cc2ccccc2)c(=O)[nH]c1=O, the Potency is reported as inconclusive: 79.4 µM [inhibitor, single point].
For O=C1C2C3C=CC(C3)C2C(=O)N1CNc1ccc(O)cc1 (centres undefined), the “activity, negative = inhibition” value was inactive: 2.02%.
With CCCOC1CCCN(C(=O)c2ccc(OC3CCN(C(=O)CCOC)CC3)cc2)C1 (centres undefined) the “activity, negative = inhibition” value was inactive: 14.5%.
With Cc1nonc1-c1ccc2c(c1)OCO2 the Potency was inconclusive: 70.8 µM [inhibitor, single point].
With CCOC(=O)C1=C(C)NC(=O)NC1c1c(OC)ccc2ccccc12 (centres undefined) the Potency was inconclusive: 200 µM [inhibitor, partial curve].
With CN(C1=C(N2CCCCC2)C(=O)c2ccccc2C1=O)c1ccccc1 the Potency was inconclusive: 89.1 µM [inhibitor, single point].
Cc1ccc2cc3cc(C(=O)NCCCN4CCCCCC4)oc3nc2c1 was tested, and the Potency was inconclusive: 35.5 µM [inhibitor, partial curve].
In the case of CCOc1cc(NC(=S)Nc2ccccc2)c(OCC)cc1NC(=O)c1ccc(OC)cc1, the Potency is reported as inconclusive: 112 µM [inhibitor, partial curve, poor fit].
For CC1CC(=O)Nc2ccccc2N1C(=O)CN1CCN(C=O)CC1 (centres undefined), the Potency was inconclusive: 12.6 µM [inhibitor, partial curve, poor fit].
For O=[N+]([O-])c1ccccc1-c1ccc(C(=S)N2CCCCC2)o1, the Potency was inconclusive: 89.1 µM [inhibitor, single point].
For Cc1nn(-c2ccccc2)nc1C(=O)OCC(=O)N1CCC(C)CC1, the Potency was inconclusive: 28.2 µM [inhibitor, single point].
For O=C(CN1C(=O)NC(c2ccccc2)(c2ccccc2)C1=O)NCC(=O)Nc1ccc(F)cc1, the “activity, negative = inhibition” value was inactive: 0.968%.
CC(C)[C@H]1C(=O)Nc2ccccc2N1C(=O)N[C@@H](Cc1ccccc1)C(=O)N[C@@H](Cc1ccccc1)C(=O)O was tested, and the “activity, negative = inhibition” value was inactive: 1.84%.
COc1cccc(C=Nc2ccccc2C(=O)Nc2ccccc2)c1O was tested, and the “activity, negative = inhibition” value was inactive: -11.7%.
In the case of COc1ccc(C(C(=O)NC2CCCC2)N(Cc2ccc(F)cc2)C(=O)c2ccn[nH]2)cc1OC (centres undefined), the Potency is reported as inconclusive: 20 µM [inhibitor, single point].
For Nc1ncnc(N2CCc3ccccc32)c1[N+](=O)[O-], the Potency was inconclusive: 158 µM [inhibitor, partial curve, poor fit].
With Cc1ccccc1C(=O)/C(C#N)=N/Nc1c(C)n(C)n(-c2ccccc2)c1=O the “activity, negative = inhibition” value was inactive: -6.61%.
With CCCCC[n+]1ccn(-c2nc3ccccc3nc2[N-]S(=O)(=O)c2ccccc2)c1 the “activity, negative = inhibition” value was inactive: -15.6%.
For COc1ccc2nc(N=NC3=C(O)CC(C)(C)CC3=O)sc2c1, the Potency was inconclusive: 79.4 µM [inhibitor, single point].
For Cc1ccc(NC(=O)C2=CC(c3ccc(C)cc3)=NS(=O)(=O)N2C)cc1, the Potency was inconclusive: 63.1 µM [inhibitor, partial curve, poor fit].
For O=C(Cn1cnc2ccccc2c1=O)NC1CCS(=O)(=O)C1 (centres undefined), the “activity, negative = inhibition” value was inactive: 2.11%.
In the case of CCOc1ccc(C2C(C(=O)c3ccc(C)o3)=C(O)C(=O)N2CCCN(CC)CC)cc1 (centres undefined), the Potency is reported as inconclusive: 44.7 µM [inhibitor, partial curve, poor fit].
With COC(=O)COC(=O)CC(CC(N)=O)c1ccccc1 (centres undefined) the “activity, negative = inhibition” value was inactive: 8.85%.
With COc1ccc(C2c3ccc(O)cc3Oc3ncn(CC(C)C)c(=N)c32)cc1 (centres undefined) the Potency was inconclusive: 89.1 µM [inhibitor, single point].
With COc1ccc(-c2cc(=O)c3c(OC)c(OC)c(OC)c(OC)c3o2)cc1OC the Potency was “inactive”.
In the case of CC(C)CCNC(=O)c1cc2c(=O)n3ccccc3nc2s1, the Potency is reported as inconclusive: 89.1 µM [inhibitor, single point].
NC(=O)C1CCN(C(=O)CCc2nc3ccccc3c(=O)[nH]2)CC1 was tested, and the Potency was inconclusive: 22.4 µM [inhibitor, single point].
In the case of CC(=O)Nc1ccc(S(=O)(=O)Nc2nc3ccccc3nc2Nc2ccc(N)cc2)cc1, the “activity, negative = inhibition” value is reported as inactive: -2.02%.
For CCN(CC(O)COCc1ccc(Cl)cc1)C1CCCCC1 (centres undefined), the Potency was inconclusive: 398 µM [inhibitor, partial curve, poor fit].
In the case of CC(C)C(=O)Nc1ccc(NC(=O)c2cccc3c(Br)cccc23)cc1, the Potency is reported as inconclusive: 89.1 µM [inhibitor, single point].
With O=C(CN1CCOCC1)Nc1c2c(nc3ccccc13)N(Cc1ccccc1)CC2 the “activity, negative = inhibition” value was inactive: -0.221%.
In the case of O=C(COc1ccccc1C(=O)N/N=C\c1ccc(O)c(O)c1)N/N=C/c1ccc(O)c(O)c1, the “activity, negative = inhibition” value is reported as inactive: 2.08%.
In the case of Cc1onc(-c2c(F)cccc2Cl)c1C(=O)OCc1nnc(-c2ccccc2)o1, the Potency is reported as inconclusive: 158 µM [inhibitor, partial curve].
CSC1=NSC2=NC(=O)/C(=C\c3coc4ccccc4c3=O)C(=N)N12 was tested, and the Potency was inconclusive: 31.6 µM [activator, partial curve].
With O=C(Nc1cccc(C(F)(F)F)c1)c1cc[n+]([O-])cc1 the “activity, negative = inhibition” value was inactive: -7.13%.
With COc1ccc(/C=N/NC(=O)c2c(C)nc3ccccn23)cc1[N+](=O)[O-] the Potency was inconclusive: 100 µM [inhibitor, single point].
With CCN(CC)c1ccc(/C=C/c2cc(-c3ccccc3)c3ccccc3n2)cc1 the Potency was inconclusive: 63.1 µM [activator, partial curve].
For COc1ccccc1-c1cc(C(F)(F)F)n2ncc(S(=O)(=O)c3ccccc3)c2n1, the “activity, negative = inhibition” value was inactive: -0.405%.
With Cc1ccc(C(=O)N2c3ccccc3N(Cc3ccccc3)C(=O)C2(C)C)cc1 the Potency was inconclusive: 22.4 µM [inhibitor, single point].
For COC(=O)C1=C(C)NC(=O)C1(Nc1ccc(Cl)cn1)C(F)(F)F (centres undefined), the Potency was inconclusive: 14.1 µM [inhibitor, single point].
In the case of COc1ccc(N/N=C(/C#N)S(=O)(=O)C(C)(C)C)cc1, the Potency is reported as inconclusive: 100 µM [inhibitor, single point].
In the case of O=C(N/N=C/c1c[nH]c2ccc(Br)cc12)c1ccccn1, the Potency is reported as inconclusive: 17.8 µM [inhibitor, partial curve].
CCOC(=O)C1=C(CNCCc2ccc(Cl)cc2)NC(=O)NC1c1cccc([N+](=O)[O-])c1 (centres undefined) was tested, and the Potency was inconclusive: 100 µM [inhibitor, single point].
In the case of O=C(NNS(=O)(=O)Cc1ccccc1)c1ccc([N+](=O)[O-])cc1, the Potency is reported as inconclusive: 100 µM [inhibitor, single point].
In the case of O=C(CN1CCN(c2ccccc2O)CC1)NC(=O)NC1CCCC1, the “activity, negative = inhibition” value is reported as inactive: -0.639%.
